Values from PubChem BioAssay AID1259308 (NCATS, 2017).
Here is a random part of about 59,000 reagents. About 1,510 of all reagents (2.6%) count as active. 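Calls use total luciferase alone and ignore viability, so some active siRNAs may act by altering cell number.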 Unmarked entries are inactive. Reagents against one gene are numbered here. Reagent sequences are not shown.

Screen: 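Knock-downs that increase output of a recombinant reporter protein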 (primary screen)
System: human HEK293 embryonic kidney cells stably expressing firefly luciferase (HEK-CMV-Luc2-Hygro)
Reagent: single siRNA against human genes, 0.8 pmol siRNA per well
Timing: 72 h
Measurement: 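Reporter luminescence and viable-cell signal on separate replicate plates, given as percent of non-targeting control and median/MAD z-scores, plus per-cell luciferase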
Direction: total luciferase, z-score and total luciferase, % of control: higher = more reporter protein produced; luciferase per cell, z-score: higher = more reporter output per viable cell; viable cells, % of control: higher = more viable cells
Hit rule: 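Active when the median/MAD z-score for overall luciferase is greater than 3; a gene was taken forward for validation with new siRNAs if at least two of its three siRNAs passed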
Meaning of the calls: active = raised luciferase; inactive = no rise

| gene knocked down | reagent | total luciferase, z-score | total luciferase, % of control | luciferase per cell, z-score | viable cells, % of control |
| --- | --- | --- | --- | --- | --- |
| LOC728353 (retired record) | 1 | 1.42 | 110 | 1.11 | 92 |
| LOC728353 (retired record) | 2 | 0.536 | 92.5 | 0.625 | 87.7 |
| LOC728353 (retired record) | 3 | 1.67 | 115 | 1.48 | 87 |
| DTX3 (deltex E3 ubiquitin ligase 3) | 1 | 5.37 (active) | 189 | 2.84 | 99.9 |
| DTX3 (deltex E3 ubiquitin ligase 3) | 2 | 0.226 | 86.4 | -0.122 | 99.7 |
| DTX3 (deltex E3 ubiquitin ligase 3) | 3 | -0.928 | 63.4 | -1.41 | 103 |
| IL22RA1 (interleukin 22 receptor subunit alpha 1) | 1 | 0.231 | 86.5 | 0.031 | 95.9 |
| IL22RA1 (interleukin 22 receptor subunit alpha 1) | 2 | -0.757 | 66.8 | -0.759 | 91.2 |
| IL22RA1 (interleukin 22 receptor subunit alpha 1) | 3 | 0.456 | 90.9 | 0.518 | 88.7 |
| RAB10 (RAB10, member RAS oncogene family) | 1 | 3.79 (active) | 157 | 1.99 | 104 |
| RAB10 (RAB10, member RAS oncogene family) | 2 | -0.641 | 69.1 | -0.787 | 95 |
| RAB10 (RAB10, member RAS oncogene family) | 3 | -2.92 | 23.9 | -3.82 | 73 |
| CDC42 (cell division cycle 42) | 1 | -1.44 | 53.2 | -1.35 | 84.8 |
| CDC42 (cell division cycle 42) | 2 | -0.392 | 74.1 | 0.212 | 78.3 |
| CDC42 (cell division cycle 42) | 3 | -0.249 | 76.9 | -0.327 | 93.7 |
| SCGB1A1 (secretoglobin family 1A member 1) | 1 | -0.81 | 65.8 | -1.48 | 109 |
| SCGB1A1 (secretoglobin family 1A member 1) | 2 | -1.78 | 46.5 | -2.27 | 94.5 |
| SCGB1A1 (secretoglobin family 1A member 1) | 3 | 3.05 (active) | 143 | 2.88 | 74.7 |
| DONSON (DNA replication fork stabilization factor DONSON) | 1 | 0.0942 | 83.8 | 1.17 | 68.8 |
| DONSON (DNA replication fork stabilization factor DONSON) | 2 | -0.139 | 79.1 | 0.91 | 69.6 |
| DONSON (DNA replication fork stabilization factor DONSON) | 3 | -0.268 | 76.6 | -0.205 | 90.3 |
| TREML2 (triggering receptor expressed on myeloid cells like 2) | 1 | 2.21 | 126 | 2.04 | 82.3 |
| TREML2 (triggering receptor expressed on myeloid cells like 2) | 2 | -0.215 | 77.6 | -0.354 | 95.2 |
| TREML2 (triggering receptor expressed on myeloid cells like 2) | 3 | 0.696 | 95.7 | 0.754 | 87.7 |
| LGALS13 (galectin 13) | 1 | 0.694 | 95.7 | 0.849 | 85.5 |
| LGALS13 (galectin 13) | 2 | -1.08 | 60.3 | -1.49 | 99.9 |
| LGALS13 (galectin 13) | 3 | 0.427 | 90.4 | -0.185 | 106 |
| RNF222 (ring finger protein 222) | 1 | -0.284 | 76.2 | 0.193 | 81 |
| RNF222 (ring finger protein 222) | 2 | 0.57 | 93.2 | 0.625 | 88.4 |
| RNF222 (ring finger protein 222) | 3 | -1.82 | 45.7 | -0.861 | 64 |
| MMP25 (matrix metallopeptidase 25) | 1 | 0.062 | 83.1 | 0.24 | 87.2 |
| MMP25 (matrix metallopeptidase 25) | 2 | -3.2 | 18.3 | -3.57 | 52.5 |
| MMP25 (matrix metallopeptidase 25) | 3 | -0.632 | 69.3 | 0.401 | 69.7 |
| ZNF69 (zinc finger protein 69) | 1 | -1.62 | 49.7 | -1.24 | 76.9 |
| ZNF69 (zinc finger protein 69) | 2 | 0.0094 | 82.1 | 0.757 | 75.1 |
| ZNF69 (zinc finger protein 69) | 3 | 1.19 | 106 | 1.21 | 85.7 |
| PSMD3 (proteasome 26S subunit, non-ATPase 3) | 1 | 2.11 | 124 | 2.58 | 70.2 |
| PSMD3 (proteasome 26S subunit, non-ATPase 3) | 2 | 1.06 | 103 | 2.26 | 63.5 |
| PSMD3 (proteasome 26S subunit, non-ATPase 3) | 3 | 2.26 | 127 | 2.92 | 65.6 |

Active calls, among the entries above:
| gene knocked down | reagent | total luciferase, z-score | total luciferase, % of control | luciferase per cell, z-score | viable cells, % of control |
| --- | --- | --- | --- | --- | --- |
| DTX3 (deltex E3 ubiquitin ligase 3) | 1 | 5.37 (active) | 189 | 2.84 | 99.9 |
| RAB10 (RAB10, member RAS oncogene family) | 1 | 3.79 (active) | 157 | 1.99 | 104 |
| SCGB1A1 (secretoglobin family 1A member 1) | 3 | 3.05 (active) | 143 | 2.88 | 74.7 |
